In patent US10815272B2, “CD31 peptides” (INSTITUT NATIONAL DE LA SANTE ET DE LA RECHERCHE MEDICALE …, priority 2012, dated 2020):
pEC50: −log10 of the molar value. Not every detail of the peptide structures is certain; ends, links or a residue may be inferred. Non-standard residues stand in square brackets, D forms with d. Residues, ends and D or L forms follow the SMILES beside them. No end group written: not given here.

What was measured:
Jurkat T cells = assay: calcium mobilization test using Jurkat T cells after TCR stimulation; format: cell-based; settings: for pEC50: Jurkat cells stimulated with antiCD3+Fab antibodies, read-out: ED 50 (minimal dose producing 50 percent of the maximum obtainable inhibition of intracellular calcium mobilization)
Method: Jurkat T cells were preincubated with the fluo 3-AM calcium probe and stimulated by cross-linking the TCR with anti-CD3 antibodies and secondary antibody F(ab′)2 fragments.
Jurkat T cells (10×10^6/ml) were preincubated with the fluo 3-AM calcium probe and stimulated by cross-linking the TCR with anti-CD3 antibodies and secondary antibody F(ab′)2 fragments.
Activity was determined using the calcium mobilization test using Jurkat T cells, as described above.

platelets = assay: thrombin generation (calibrated automated thrombogram) and platelet activation in platelet rich plasma on peptide-coated wells; format: cell-based; settings: immobilised peptide vs Bare and Control wells, platelet rich plasma, Tissue Factor 0.5 pM, 37° C.
[1] = tested on: Peripheral blood mononuclear cells; assay: leukocyte adherence and activation on P8RI-coated wells, LPS stimulation; format: cell-based; settings: immobilised peptide, LPS 1 μg/ml 60', after 3 washes with PBS
[2] = tested on: human platelet aggregation; assay: platelet aggregation on collagen-coated microcapillaries under flow (whole blood perfusion); format: cell-based; settings: soluble peptide, 1500 seconds^−1, first 5 minutes
Method: The microcapillaries of Vena8 Fluoro+™ biochip (400 μm width×100 μm depth×20 mm length, Cellix) were coated with 2.5 mg/ml insoluble horse type I collagen overnight at 4° C. and then blocked with 0.1% HSA for 1 hour at room temperature. Human peripheral whole blood, anticoagulated with P-PACK (a direct thrombin inhibitor, non-chelating agent) was labeled with 5 μM DiOC6 for 10 minutes before perfusion with the Cellix pump at 1500 seconds^−1 through the coated capillaries. The interaction of platelets with the matrix was viewed in real time under a fluorescence microscope and was saved for off-line analysis. The surface covered by aggregated platelets was analyzed frame by frame (24 frames/s) over the first 5 minutes and expressed as coverage %.

[3] = stability, resistance to repeated freeze-thaw cycles (loss of activity); format: physicochemical; settings: number of cycles after which activity was diminished or abolished
Method: The solubility, activity and stability (resistance to freezing/thawing) of the P8F and P8RI peptides were compared to previously used peptides comprising the membrane-proximal sequences of CD31.
Stability was determined by subjecting the peptides to repeated freeze-thaw cycles and determining the number of cycles after which ED 50 was increased and/or biological activity abolished.

[4] = tested on: VCAM-1 expression in HCMEC/D3 cells; assay: VCAM-1 expression in HCMEC/D3 endothelial cells stimulated with TNFa and IFNg; format: cell-based, human
[5] = tested on: Human umbilical endothelial cells (HUVECs); assay: endothelial cell attachment and growth on P8RI-coated wells; format: cell-based; settings: immobilised peptide, three days after seeding

| Compound | intracellular calcium mobilization (median fluorescence intensity of fluo-3AM probe) (Jurkat T cells; 60 μg/ml peptide, Jurkat cells, TCR stimulation with anti-CD3 + F(ab')2) | pEC50 (Jurkat T cells) | thrombin activity (velocity index, Peak/Time to peak−LagTime) (platelets) | adherent leukocytes in wells [1] | human platelet aggregation (surface coverage %) [2] | maximum freeze/thaw cycles [3] | lowest concentration at which the effect on VCAM-1 expression was observed ([4]; doses up to 50 μg/ml, no change with higher doses) | reduction of VCAM-1 expression (quantitative FACS) ([4]; overnight TNFa 50 ng/ml + IFNg 100 ng/ml, n=3 wells/condition) | increase in VCAM-1 expression (immunofluorescence) ([4]; overnight TNFa 50 ng/ml + IFNg 100 ng/ml, soluble peptide) | endothelial cell attachment and growth [5] |
| --- | --- | --- | --- | --- | --- | --- | --- | --- | --- | --- |
| CC(C)C[C@@H](NC(=O)[C@@H](C)NC(=O)[C@H]1CCCN1C(=O)[C@@H](Cc1c[nH]c2ccccc12)NC(=O)[C@H](N)CCCCN)C(=O)N[C@H](Cc1ccccc1)C(=O)N[C@@H](C(=O)N[C@H](CCCNC(=N)N)C(=O)O)C(C)C [P8RI, H-kwpalfvr-OH] (H-[dK][dW][dP][dA][dL][dF][dV][dR]-OH) | delayed and reduced | 4.90 | significantly reduced | virtually absent | inhibit human platelet aggregation in a dose dependent manner | 5 cycles | 6.25 µg/mL | statistically significant | prevented it | favours endothelial cell attachment and growth |
| SMRTSPRSSTLAVRVFLAPWKK [P22 mouse, reference compound] |  | 4.00 |  |  |  | 2 cycles |  |  |  |  |
| VRVFLAPWKK [PepReg, reference compound] |  | 4.30 |  |  |  | 3 cycles |  |  |  |  |
